No constants are given. Whether binding was seen depends on the method and setting.
Target: Fgr SH3 domain (UniProt P09769)
Experiment: SPR; SH3 domains immobilised on one CM5 chip, ChoKα injected in triplicate, 0.1 to 30 µM, 2 min, PBS pH 7.5, 30 µL/min; steady-state KD from RUmax; both purified

Choline kinase alpha, full-length (FL) wild type (from UniProt P35790 1-457) (enzyme)
binding: no binding (tested: 0.1 to 30 μM)

Reference: PMC6864063
